Results are given in words; binding and its absence hold for the method and conditions named. In cells and extracts the contact can be indirect. Some binding calls cover weakened binding; strength is not graded here.
Target: GFP-Mm_Gli2 (GLI-family zinc finger-2, Mus musculus), expressed from pEGFP-C in HEK293FT (Mus musculus) (UniProt Q0VGT2)
Experiment: co-IP; GFP-Gli2 precipitated with GFP-Trap beads from lysates of transfected HEK293FT; 10 mM Tris/HCl pH 7.5, 150 mM NaCl, 0.5 mM EDTA, 0.1% Triton X-100; 4°C, 2 h; endogenous importins detected by western blot

The chains behind the UniProt entries cited, without tags or fusion partners.
UniProt Q0VGT2: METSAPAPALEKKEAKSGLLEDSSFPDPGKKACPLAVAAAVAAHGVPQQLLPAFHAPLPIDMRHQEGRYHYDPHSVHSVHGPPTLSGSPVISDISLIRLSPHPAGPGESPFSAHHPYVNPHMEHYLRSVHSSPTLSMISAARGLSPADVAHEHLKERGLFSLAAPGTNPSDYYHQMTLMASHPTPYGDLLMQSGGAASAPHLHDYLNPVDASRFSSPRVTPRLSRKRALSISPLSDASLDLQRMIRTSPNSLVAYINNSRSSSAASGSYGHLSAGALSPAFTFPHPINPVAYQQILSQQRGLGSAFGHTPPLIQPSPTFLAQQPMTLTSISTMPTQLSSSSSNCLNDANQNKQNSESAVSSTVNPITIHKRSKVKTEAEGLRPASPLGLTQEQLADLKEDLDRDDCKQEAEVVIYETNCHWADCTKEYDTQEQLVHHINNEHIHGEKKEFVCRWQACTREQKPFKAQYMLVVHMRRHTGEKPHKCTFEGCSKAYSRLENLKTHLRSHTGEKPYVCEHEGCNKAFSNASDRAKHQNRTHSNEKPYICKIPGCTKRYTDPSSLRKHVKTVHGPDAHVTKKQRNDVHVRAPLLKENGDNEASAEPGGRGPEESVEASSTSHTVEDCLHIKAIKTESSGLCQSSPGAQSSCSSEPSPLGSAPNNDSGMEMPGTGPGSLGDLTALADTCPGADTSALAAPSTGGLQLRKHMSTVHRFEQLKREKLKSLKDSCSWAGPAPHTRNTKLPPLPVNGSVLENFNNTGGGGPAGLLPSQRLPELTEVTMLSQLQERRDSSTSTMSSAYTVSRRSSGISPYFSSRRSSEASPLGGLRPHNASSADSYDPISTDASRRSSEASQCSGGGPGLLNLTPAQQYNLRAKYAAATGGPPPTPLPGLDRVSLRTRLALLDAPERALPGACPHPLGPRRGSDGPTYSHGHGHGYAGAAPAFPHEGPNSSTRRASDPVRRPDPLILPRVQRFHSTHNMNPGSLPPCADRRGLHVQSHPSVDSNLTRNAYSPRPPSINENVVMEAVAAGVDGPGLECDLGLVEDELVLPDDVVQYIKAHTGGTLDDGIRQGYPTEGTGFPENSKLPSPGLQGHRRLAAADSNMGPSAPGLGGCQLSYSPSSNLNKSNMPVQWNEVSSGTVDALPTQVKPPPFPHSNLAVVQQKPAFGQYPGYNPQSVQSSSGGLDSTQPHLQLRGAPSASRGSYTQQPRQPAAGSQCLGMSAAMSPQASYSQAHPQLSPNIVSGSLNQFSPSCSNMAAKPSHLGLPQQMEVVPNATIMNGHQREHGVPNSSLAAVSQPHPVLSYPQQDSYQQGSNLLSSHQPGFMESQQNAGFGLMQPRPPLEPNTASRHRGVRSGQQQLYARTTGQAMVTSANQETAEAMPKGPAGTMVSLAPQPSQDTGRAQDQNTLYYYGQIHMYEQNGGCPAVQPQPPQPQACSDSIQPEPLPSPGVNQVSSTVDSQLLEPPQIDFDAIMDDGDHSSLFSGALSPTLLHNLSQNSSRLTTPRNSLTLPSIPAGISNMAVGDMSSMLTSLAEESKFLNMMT
UniProt Q92973: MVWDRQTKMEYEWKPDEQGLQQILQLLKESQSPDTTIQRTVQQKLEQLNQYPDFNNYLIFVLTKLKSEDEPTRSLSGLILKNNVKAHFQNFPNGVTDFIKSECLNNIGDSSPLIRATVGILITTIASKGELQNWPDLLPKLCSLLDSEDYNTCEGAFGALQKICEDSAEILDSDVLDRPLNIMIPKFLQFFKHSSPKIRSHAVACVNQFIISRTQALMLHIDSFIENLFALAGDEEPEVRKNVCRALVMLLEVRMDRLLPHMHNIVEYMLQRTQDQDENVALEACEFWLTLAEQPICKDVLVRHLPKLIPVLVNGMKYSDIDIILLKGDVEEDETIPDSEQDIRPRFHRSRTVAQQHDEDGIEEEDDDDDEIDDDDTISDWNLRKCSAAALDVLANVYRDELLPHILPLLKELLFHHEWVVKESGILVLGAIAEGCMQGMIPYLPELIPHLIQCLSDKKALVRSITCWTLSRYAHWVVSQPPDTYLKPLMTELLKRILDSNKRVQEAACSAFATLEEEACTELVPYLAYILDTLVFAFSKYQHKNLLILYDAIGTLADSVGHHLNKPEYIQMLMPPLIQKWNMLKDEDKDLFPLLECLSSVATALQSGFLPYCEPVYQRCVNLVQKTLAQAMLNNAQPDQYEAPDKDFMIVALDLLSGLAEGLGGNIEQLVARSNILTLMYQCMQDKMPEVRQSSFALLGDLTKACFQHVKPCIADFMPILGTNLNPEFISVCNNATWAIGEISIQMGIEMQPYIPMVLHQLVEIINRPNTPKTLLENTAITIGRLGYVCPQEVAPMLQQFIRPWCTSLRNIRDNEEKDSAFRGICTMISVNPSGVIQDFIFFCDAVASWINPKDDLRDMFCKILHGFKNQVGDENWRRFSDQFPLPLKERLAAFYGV

Substance: Imp-β2 (importin-β2), endogenous in HEK293FT (from UniProt Q92973 1-898)
- binding: binds

— PMC5007031
